The values that follow come from publication PMC12061245.

By UniProt entry, the sequences of proteins in these tests, tags left out.
UniProt P10417: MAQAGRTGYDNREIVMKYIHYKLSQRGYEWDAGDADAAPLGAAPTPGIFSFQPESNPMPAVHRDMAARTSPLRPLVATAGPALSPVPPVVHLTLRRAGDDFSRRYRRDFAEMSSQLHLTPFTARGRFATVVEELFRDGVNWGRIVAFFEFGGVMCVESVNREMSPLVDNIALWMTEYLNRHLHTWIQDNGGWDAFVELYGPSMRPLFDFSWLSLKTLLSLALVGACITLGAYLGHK

Results are given in words; binding and its absence hold for the method and conditions named. In cells and extracts the contact can be indirect.

The target in the assay is T1, mitochondrial carrier homolog 2 (MTCH2) (mouse (endogenous in 3T3-L1)) (UniProt Q791V5).
T1 sequence: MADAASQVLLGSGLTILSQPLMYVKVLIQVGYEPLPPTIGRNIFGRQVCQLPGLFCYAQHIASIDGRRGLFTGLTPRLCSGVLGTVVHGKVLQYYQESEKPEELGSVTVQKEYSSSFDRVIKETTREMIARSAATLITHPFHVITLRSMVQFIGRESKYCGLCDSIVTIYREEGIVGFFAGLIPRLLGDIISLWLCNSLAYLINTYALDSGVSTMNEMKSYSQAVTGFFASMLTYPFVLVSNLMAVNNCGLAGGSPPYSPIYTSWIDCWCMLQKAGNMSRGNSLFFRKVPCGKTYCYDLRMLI
Put plainly: co-IP; 3T3L1 cell lysate; 1 mg cellular proteins with 1 µg primary antibodies at 4 °C overnight, Protein A/G magnetic beads 2 h at 4 °C, Western blot; which protein was precipitated is not told. For orientation: In western blotting, separated proteins are transferred to a membrane and probed.

Consider Bcl-2 (from UniProt P10417 1-236), for which the binding entry was “no binding”.
